# Test results reported in the supplement of paper PMC4635364.
# Where a name gives a salt, the structure may show the parent alone. The list shows a part of the results. This data set is noisy: repeats of one test often differ as much as different tests do.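 Human fetal ventral-midbrain neural progenitor line ReNCell VM, differentiated without mitogens. Images stained for doublecortin (early neurons) or tyrosine hydroxylase (dopaminergic neurons) were scored by blinded raters against untreated wells (0 = no change). Repeats and both raters were averaged, and compounds averaging 2 or higher were picked as hits for retesting.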
# Test system: ReNCell VM
# Assay: dopaminergic neuron differentiation score (TH+ cell fraction vs untreated, manual image score) (score (0 to 3)); higher = more TH+ dopaminergic neuron differentiation
# Conditions: library: Spectrum; 2 uM; 4 weeks; BDNF 10 ng/ml + GDNF 10 ng/ml
row,SMILES,dopaminergic neuron differentiation score
1,Cc1cc(O)cc(=O)o1,inactive: 0
2,COC(=O)/C(=C1/OC(=O)C(c2ccccc2)=C1O)c1ccccc1,inactive: 0
3,OCC(O)C(O)C(O)CO (configuration not stated),inactive: 0
4,Nc1ccc(/N=N/c2ccccc2)c(N)n1,inactive: 0
5,CC1=C(/C=C/C(C)=C/C=C/C(C)=C/C(=O)O)C(C)(C)CCC1,inactive: 0
6,CCN(CC)CCOC(=O)C1(C2CCCCC2)CCCCC1,inactive: 0
7,COc1ccc2c(c1)OC[C@@H](Cc1ccc(OC)c(OC)c1)[C@H]2O,inactive: 0
8,NCCC[C@H](N)C(=O)O,inactive: 0
9,O=C(O)Cc1ccccc1Nc1c(Cl)cccc1Cl,inactive: 0
10,NCCS(=O)(=O)O,inactive: 0
11,COc1ccc(Cc2cnc(N)nc2N)cc1OC,inactive: 0
12,CC(=O)Oc1cc(-c2coc3cc(OC(C)=O)c(OC(C)=O)c(OC(C)=O)c3c2=O)cc(OC(C)=O)c1OC(C)=O,inactive: 0

# Looked up above:
# For dopaminergic neuron differentiation score, COC(=O)/C(=C1/OC(=O)C(c2ccccc2)=C1O)c1ccccc1 has the entry inactive: 0
# For dopaminergic neuron differentiation score, Cc1cc(O)cc(=O)o1 has the entry inactive: 0

# Same assay, conditions: library: Tocriscreen; 2 uM; 4 weeks; BDNF 10 ng/ml + GDNF 10 ng/ml
row,SMILES,dopaminergic neuron differentiation score
1,C[N+]1(C)CCC(OC(=O)C(c2ccccc2)c2ccccc2)CC1,inactive: 0
2,OC[C@H]1NC[C@@H](O)[C@@H](O)[C@@H]1O [1-Deoxymannojirimycin hydrochloride],inactive: 0
3,O=Nc1ccc(O)c2ncccc12,inactive: 0
4,COc1ccccc1N1CCN(CCCCNC(=O)c2ccc(-c3ccc(C(C)=O)cc3)cc2)CC1,inactive: 0
5,O/N=C/c1ccc(-c2ccc(O)c(F)c2)c(Cl)c1O,inactive: 0
6,CCOC(=O)[C@H](CCc1ccccc1)N[C@H]1CCc2ccccc2N(CC(=O)O)C1=O [Benazepril hydrochloride],inactive: 0
7,c1cnc(N2CCN(Cc3ccc4c(c3)OCO4)CC2)nc1 [Piribedil],inactive: 0
8,"Cc1c(C2CCN(CCc3ccccc3)CC2)noc1-c1ccc(Cl)cc1 [L-741,742 hydrochloride]",inactive: 0
9,COc1ccc(NC(=O)c2cc(OCCCN(C)C)nn2Cc2ccccc2)cc1 [CFM 1571 hydrochloride],inactive: 0
10,Fc1ccc([C@@H]2CCNC[C@H]2COc2ccc3c(c2)OCO3)cc1 [Paroxetine maleate],inactive: 0
